## Library screen at single concentrations

By UniProt entry, the sequences of proteins in these tests, tags left out. Residues count along the entry.
UniProt I6X8D2, whole entry: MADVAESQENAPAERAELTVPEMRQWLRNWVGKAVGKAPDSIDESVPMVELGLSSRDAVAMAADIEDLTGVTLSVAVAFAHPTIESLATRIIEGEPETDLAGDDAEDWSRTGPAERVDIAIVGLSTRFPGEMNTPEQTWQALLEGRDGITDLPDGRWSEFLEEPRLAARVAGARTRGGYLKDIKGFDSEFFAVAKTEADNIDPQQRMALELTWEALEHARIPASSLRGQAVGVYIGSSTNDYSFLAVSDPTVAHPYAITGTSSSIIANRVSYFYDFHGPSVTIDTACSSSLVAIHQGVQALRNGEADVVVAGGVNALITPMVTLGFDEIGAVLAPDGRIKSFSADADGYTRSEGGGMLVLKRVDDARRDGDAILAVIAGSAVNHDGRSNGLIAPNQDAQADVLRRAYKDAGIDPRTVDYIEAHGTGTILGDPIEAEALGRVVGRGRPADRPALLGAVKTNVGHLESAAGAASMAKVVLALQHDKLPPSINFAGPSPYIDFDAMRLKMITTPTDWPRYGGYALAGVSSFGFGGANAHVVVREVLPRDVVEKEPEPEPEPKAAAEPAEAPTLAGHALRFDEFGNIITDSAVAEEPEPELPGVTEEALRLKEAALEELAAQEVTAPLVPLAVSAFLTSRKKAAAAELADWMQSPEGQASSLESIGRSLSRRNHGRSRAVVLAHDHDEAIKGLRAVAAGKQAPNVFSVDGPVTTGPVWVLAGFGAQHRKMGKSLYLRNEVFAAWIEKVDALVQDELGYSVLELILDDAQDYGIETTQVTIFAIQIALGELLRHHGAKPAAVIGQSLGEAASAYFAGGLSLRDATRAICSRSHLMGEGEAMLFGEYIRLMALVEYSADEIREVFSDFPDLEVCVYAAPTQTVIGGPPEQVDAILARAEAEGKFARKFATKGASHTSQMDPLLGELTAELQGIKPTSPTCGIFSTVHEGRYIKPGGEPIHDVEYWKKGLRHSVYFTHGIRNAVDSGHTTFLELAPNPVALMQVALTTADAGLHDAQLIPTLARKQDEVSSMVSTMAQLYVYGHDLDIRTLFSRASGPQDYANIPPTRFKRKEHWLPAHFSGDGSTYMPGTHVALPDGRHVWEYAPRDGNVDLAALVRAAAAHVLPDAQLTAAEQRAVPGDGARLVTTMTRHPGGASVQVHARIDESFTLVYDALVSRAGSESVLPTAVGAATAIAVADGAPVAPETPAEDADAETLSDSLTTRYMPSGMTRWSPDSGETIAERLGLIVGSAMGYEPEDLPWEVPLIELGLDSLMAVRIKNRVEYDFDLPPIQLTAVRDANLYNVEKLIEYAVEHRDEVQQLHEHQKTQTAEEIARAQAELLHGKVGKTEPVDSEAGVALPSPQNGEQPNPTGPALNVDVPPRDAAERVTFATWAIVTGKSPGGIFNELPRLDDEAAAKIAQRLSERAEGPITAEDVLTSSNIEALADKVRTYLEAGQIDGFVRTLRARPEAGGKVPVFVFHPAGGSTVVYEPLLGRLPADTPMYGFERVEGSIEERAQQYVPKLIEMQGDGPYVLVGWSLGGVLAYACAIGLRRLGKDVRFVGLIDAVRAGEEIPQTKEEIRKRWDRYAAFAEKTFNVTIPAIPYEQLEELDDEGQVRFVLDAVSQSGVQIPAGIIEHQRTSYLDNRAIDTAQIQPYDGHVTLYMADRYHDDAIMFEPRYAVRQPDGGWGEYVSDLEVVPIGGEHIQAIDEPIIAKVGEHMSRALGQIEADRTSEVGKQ
UniProt Q8IDJ8, 1-583: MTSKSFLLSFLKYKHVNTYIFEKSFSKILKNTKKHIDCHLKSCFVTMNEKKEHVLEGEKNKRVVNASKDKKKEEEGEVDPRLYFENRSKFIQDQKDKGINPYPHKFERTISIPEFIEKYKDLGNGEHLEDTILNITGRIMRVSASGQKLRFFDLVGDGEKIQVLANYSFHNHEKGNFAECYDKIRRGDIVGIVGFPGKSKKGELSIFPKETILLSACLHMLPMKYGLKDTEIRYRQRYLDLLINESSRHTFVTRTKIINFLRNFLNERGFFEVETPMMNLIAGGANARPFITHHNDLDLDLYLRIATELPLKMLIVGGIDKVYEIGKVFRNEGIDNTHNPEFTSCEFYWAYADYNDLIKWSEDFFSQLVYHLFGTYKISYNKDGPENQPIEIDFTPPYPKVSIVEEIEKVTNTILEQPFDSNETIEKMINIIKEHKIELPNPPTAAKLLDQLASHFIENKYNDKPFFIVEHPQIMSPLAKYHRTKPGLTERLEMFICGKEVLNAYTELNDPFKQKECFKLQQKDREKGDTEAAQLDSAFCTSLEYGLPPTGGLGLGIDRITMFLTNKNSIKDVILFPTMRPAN
UniProt A4I591, 1-473: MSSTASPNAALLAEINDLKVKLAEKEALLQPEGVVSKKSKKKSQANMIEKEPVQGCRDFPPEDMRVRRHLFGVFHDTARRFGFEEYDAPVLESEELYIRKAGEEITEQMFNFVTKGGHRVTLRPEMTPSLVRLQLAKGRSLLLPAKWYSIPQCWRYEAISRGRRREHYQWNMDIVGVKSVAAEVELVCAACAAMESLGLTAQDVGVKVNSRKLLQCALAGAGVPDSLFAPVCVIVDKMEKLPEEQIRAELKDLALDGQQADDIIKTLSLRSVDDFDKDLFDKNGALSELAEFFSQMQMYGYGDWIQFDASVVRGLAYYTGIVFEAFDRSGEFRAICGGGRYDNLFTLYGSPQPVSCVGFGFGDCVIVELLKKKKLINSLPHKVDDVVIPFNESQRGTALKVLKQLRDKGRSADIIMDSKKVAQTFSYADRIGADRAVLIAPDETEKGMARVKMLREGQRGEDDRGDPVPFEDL
UniProt P9WFT3, whole entry: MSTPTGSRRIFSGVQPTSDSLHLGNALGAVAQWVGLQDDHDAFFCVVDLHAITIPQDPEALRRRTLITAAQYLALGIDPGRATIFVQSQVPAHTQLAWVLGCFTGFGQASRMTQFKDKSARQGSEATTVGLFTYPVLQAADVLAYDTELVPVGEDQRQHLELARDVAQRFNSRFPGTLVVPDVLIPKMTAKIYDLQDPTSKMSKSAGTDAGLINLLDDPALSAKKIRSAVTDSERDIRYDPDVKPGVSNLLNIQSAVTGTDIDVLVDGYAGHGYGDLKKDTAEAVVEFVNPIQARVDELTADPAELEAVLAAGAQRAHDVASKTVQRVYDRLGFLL

From ChEMBL document CHEMBL3988442, “University of Dundee, Small-Polar-MMV Screening Library” (2021).

Values are the deposited “Percent Effect”, in %.
The record does not define 0% and 100%; most values in the screen are far below 50% and negative numbers occur (in some assays of this library far below -100).
Compounds were drawn at random from those tested, without regard to their results.
A dash means the value is not listed here; it may have been measured.

Pks13 thioesterase: 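Enzyme assay of the thioesterase domain of polyketide synthase 13; the read-out is not stated. Target: Polyketide synthase Pks13, Mycobacterium tuberculosis (UniProt I6X8D2). Tested at 30 µM. Higher reads as stronger inhibition (inferred from which compounds were picked for retests). Size under these conditions: about 67,000 compounds, about 300 of them at 50% or above in at least one test.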
PfKRS1: 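Lysine-tRNA ligase, Plasmodium falciparum 3D7 (UniProt Q8IDJ8). Enzyme assay of the cytosolic lysyl-tRNA synthetase in 384-well plates, read by luminescence. Compounds at 30 µM. Direction is inferred from only a few compounds that gave an IC50; most scored high, so higher reads as stronger inhibition. Size under these conditions: about 69,000 compounds, about 49 of them at 50% or above in at least one test.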
LiHisRS: 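Histidine-tRNA ligase, Leishmania infantum (UniProt A4I591). Enzyme assay of histidyl-tRNA synthetase; the read-out is not stated. Tested at 30 µM. Direction is inferred from retests: higher values go with stronger inhibition. The assay is labelled LdHisRS but filed under L. infantum. Of about 69,000 compounds tested this way, about 410 (0.6%) reached 50% or more in at least one test.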
MtTrpRS: 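Tryptophan-tRNA ligase, Mycobacterium tuberculosis (UniProt P9WFT3). Enzyme assay of tryptophanyl-tRNA synthetase; the read-out is not stated. Compounds at 10 µM. Higher most likely means stronger inhibition; the record gives no direction and few retests gave an IC50. Size under these conditions: about 65,000 compounds, about 64 of them at 50% or above in at least one test.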

SMILES	Pks13 thioesterase	PfKRS1	LiHisRS	MtTrpRS
CCn1cc(CN2CCCN(C(=O)C3=NN(C)C(=O)CC3)CC2)cn1	-5.521%	0.3073%	18.67%	1.016%
Cc1cc(N2CCC(O)(CN(C)C)C2)c2cc3c(cc2n1)OCO3 (centres undefined)	-11.12%	5.942%	31.17%	-0.8653%
Cc1ccccc1C(C)NC(=O)CN1CCN(Cc2ccc(Br)s2)CC1 (centres undefined)	-62.72%	3.988%	26.76%	4.743%
COCC(=O)NC1CC2(CCN(CCN(C)C)CC2)c2ccccc21 (centres undefined)	-14.34%	4.001%	10%	-
Cc1n[nH]c(CN2CCN(Cc3ccccc3)[C@@H]3CS(=O)(=O)C[C@@H]32)n1	3.843%	10.45%	32%	-0.06915%
Cc1noc(CN(Cc2cccs2)C2CCS(=O)(=O)C2)n1 (centres undefined)	-4.655%	-0.6821%	4.464%	-5.503%
CC(C)CN1CCc2[nH]cnc2C12CCN(C(=O)c1ccnn1C)CC2	-12.86%	-1.715%	19.35%	-0.07097%
CCc1cnccc1C(=O)NC1CCN(C(=O)C2CCCCC2)CC1	2.919%	0.2689%	9.524%	-0.432%
COc1ccc(CC(=O)Nc2c(C)nc(N3CCOCC3)nc2C)cc1	-14.57%	-1.188%	8.696%	-0.6839%
O=C1CC(c2ccc(C(=O)O)cc2)c2ncn(-c3ccccc3F)c2N1 (centres undefined)	-3.771%	9.101%	51.67%	3.65%
COc1ccc(C)cc1-c1csc(N)c1C#N	-0.98%	-4.316%	-2.632%	1.891%
Cn1cc(C(=O)NCCc2csc(-c3ccccc3)n2)ccc1=O	-32.21%	3.735%	28.92%	-0.3137%
Cc1nnc(-c2ccc(C(=O)Nc3ccnc(N(C)C)n3)cc2)o1	-18.66%	3.697%	16.44%	1.242%
COc1cccc(NC(=O)CC2Cn3ncnc3NC2=O)c1 (centres undefined)	-34.86%	4.412%	9.655%	-3.717%
Cc1csc(N2CCN(C(=O)Cc3ccsc3)CC2)n1	-5.059%	3.251%	38.1%	1.33%
COc1cc(OC)cc(-c2cc(CN)nc3ccnn23)c1	24.14%	3.133%	22.86%	-
Cc1cc(F)ccc1CCNC(=O)NCC(C)N1CCOCC1 (centres undefined)	-11.86%	8.258%	20%	-3.034%
CNS(=O)(=O)c1ccc(CNC(=O)NCc2cc[nH]n2)cc1	0.1762%	5.471%	15.5%	0.08211%
CC1CN(S(=O)(=O)c2ccc(F)cc2F)c2cccnc2O1 (centres undefined)	-34.93%	8.15%	1.299%	2.259%
Cc1noc(C2CCN(C(=O)Nc3ccc(N(C)C)nc3)CC2)n1	2.702%	1.161%	23.85%	-10.61%
O=C(c1cccc(-c2ncc[nH]2)c1)N1CCC(N2CCCC(O)C2)CC1 (centres undefined)	-8.74%	2.273%	17.74%	-3.122%
Cc1nnc([C@@H]2CC[C@@H]3[C@@H](CCN3C3CCOCC3)O2)o1	-27.67%	-2.715%	2.632%	0.7214%
CCCc1nc(CNCC2CCCN2c2cccnn2)no1 (centres undefined)	-27.04%	-0.569%	41.59%	21.57%
O=C1OC2(CCN(CC3CCCO3)CC2)CN1CCc1ccccc1 (centres undefined)	-9.344%	3.857%	17.65%	1.234%
COCCN1CC2(CCCN(Cc3cc(=O)c(OC)co3)C2)CCC1=O (centres undefined)	1.293%	0.5922%	22.22%	-2.106%
COc1cccc(NC(=O)CCCc2nc(C(C)C)no2)c1	-11.4%	0.8274%	4.425%	-0.1971%
CSCCc1ccc(NC(=O)NCc2ccnc(N(C)C)c2)cc1	-10.41%	-2.724%	-6.481%	14.71%
Cc1csc(C2NC3(CCCC3)C(=O)N2CC2CC2)n1 (centres undefined)	-6.431%	4.37%	7.08%	0.4301%
CCC1=N[C@@]2(CC[C@@H]3CN(Cc4ccccc4C)C[C@@H]32)C(=O)N1C	-20.47%	3.117%	10%	-
Cc1nn(CC(=O)N2CCN(Cc3cnn(C)c3C)CC2)cc1Cl	-4.731%	0.8695%	-3.297%	7.055%
Cc1ccc2c(c1)N(C(=O)c1nccnc1N)CC(C)O2 (centres undefined)	-4.907%	-1.307%	6.25%	3.767%
CN(C)C(=O)c1cccc(C[S+]([O-])CC(=O)NC2CCCC2)c1 (centres undefined)	-10.28%	-2.576%	4.444%	-2.963%
O=C(CC1CC1)N1CCC2(CC1)CN(c1ccsc1)C(=O)CO2	-19.46%	0.1343%	-66%	-0.7819%
O=C(Cn1ccc2ccc(F)cc21)NCc1ccc(C(=O)O)cc1	-12.48%	-3.151%	-7.895%	0.06817%
CC(=O)N1CCc2ncn(C)c2C1C(=O)N1CCCC1 (centres undefined)	-31.5%	-0.6286%	8%	-7.868%
Cc1ccc(-c2nc(CN3CCN(S(=O)(=O)N(C)C)CC3)cs2)o1	3.673%	4.476%	13.51%	-11.6%
CCOCCOC(C)C(=O)NCc1cn2cc(Br)ccc2n1 (centres undefined)	-33.83%	0.7545%	11.43%	-2.013%
Cc1nnc(N2C[C@H](OCC3CCCC3)[C@H]3OCCC[C@H]32)s1	-8.896%	7.728%	16.22%	-5.111%
Cc1nc(N(C)C)nc(C)c1NC(=O)c1ccco1	-10.54%	2.818%	3.478%	-1.596%
Cn1nc(C#N)c2c1CN(C(=O)c1ccnnc1)CCC2	-	5.601%	1.754%	4.646%
Cc1ccccc1-n1ncc(C(=O)N2CCCC2c2cnn(C)c2)c1C (centres undefined)	-11.66%	0.5232%	30.77%	-3.013%
OCc1ccc(-c2c(-c3ccccc3)ncn2CCN2CCOCC2)o1	14.26%	-4.146%	39.47%	13.41%
CC(C)C(Sc1nccn1C1CC1)C(=O)NCc1cccnc1 (centres undefined)	-25.14%	-2.661%	15.65%	32.23%
Cc1cccc2ncn(C(C)Cn3cccn3)c(=O)c12 (centres undefined)	-7.977%	3.329%	6.557%	3.382%
CC(C)C(=O)N1CCN(C(=O)c2cc(Cl)no2)[C@H]2CS(=O)(=O)C[C@H]21	5.477%	0.1317%	1.613%	-1.077%
COCCn1cnnc1C(C)NC(=O)c1[nH]c2c(C)cc(C)cc2c1C (centres undefined)	0.1037%	-4.219%	-5.714%	3.649%
Cc1[nH]ncc1CCCNC(=O)N1CCC(C(N)=O)CC1	-16.5%	-0.4397%	5.714%	-0.07764%
CC1c2ncc(COc3cccnc3)n2CCN1C(=O)Cc1ccco1 (centres undefined)	-21.97%	1.994%	11.65%	5.427%
CCCn1nc(C)c(CN(CCN(C)C)Cc2ccccn2)c1C	-0.9065%	-0.6938%	11.43%	17.27%
Cc1c(-c2ccncc2)n[nH]c1NC(=O)CCOC(C)C	-	8.464%	15.87%	0.9372%
Cc1cnn(CC2CCCN2Cc2cc(=O)n3c(C)csc3n2)c1 (centres undefined)	13.31%	6.908%	13.11%	1.847%
CC(C(=O)N1CCCC1)N1CCN(c2ncc(Cl)cn2)CC1 (centres undefined)	-31.61%	1.789%	11.4%	-6.033%
Cc1cscc1C(=O)N1CCCC1CC(=O)c1cnn(C)c1 (centres undefined)	-16.81%	0.4133%	10.53%	-3.076%
CN(C)CCOCc1cncc2c1CCN(C1CCOC1)C2 (centres undefined)	11.72%	2.671%	11.32%	-
Cc1cc(C)n(Cc2cccc(C(=O)NCCN3CCOCC3)c2)n1	-5.893%	5.8%	0.9434%	-0.58%
Cc1cnc(NCc2csc(C(C)C)n2)nc1-c1cnn(C)c1	-13.57%	4.913%	16.78%	-1.566%
CN(Cc1cnn(C)c1)C(CO)c1cccc(Br)c1 (centres undefined)	11.54%	-0.9296%	8.434%	0.6798%
COc1ccc(CN2CCCCC2c2n[nH]cc2-c2cc(C)no2)cc1 (centres undefined)	-31.72%	-0.06307%	-5.714%	7.118%

The first 5 entries again:

SMILES,Pks13 thioesterase,PfKRS1,LiHisRS,MtTrpRS
CCn1cc(CN2CCCN(C(=O)C3=NN(C)C(=O)CC3)CC2)cn1,-5.521%,0.3073%,18.67%,1.016%
Cc1cc(N2CCC(O)(CN(C)C)C2)c2cc3c(cc2n1)OCO3 (centres undefined),-11.12%,5.942%,31.17%,-0.8653%
Cc1ccccc1C(C)NC(=O)CN1CCN(Cc2ccc(Br)s2)CC1 (centres undefined),-62.72%,3.988%,26.76%,4.743%
COCC(=O)NC1CC2(CCN(CCN(C)C)CC2)c2ccccc21 (centres undefined),-14.34%,4.001%,10%,-
Cc1n[nH]c(CN2CCN(Cc3ccccc3)[C@@H]3CS(=O)(=O)C[C@@H]32)n1,3.843%,10.45%,32%,-0.06915%